Literature values, collected in patent publication US11154501B2, “Method of enhancing the efficacy and stability of ingredients in suspensions” (Nanophase Technologies Corporation, priority 2019, dated 2021).

Conditions: in neutral water

## O=c1c(O)c(-c2ccc(O)c(O)c2)oc2cc(O)cc(O)c12 [quercetin]
  solubility (in words): very poorly soluble
